Measured values from patent US20240209027A1 (PeptiAID Inc.,, priority 2021, published 2024).

Assay: general procedure: Fmoc solid-phase peptide synthesis; Sieber amide resin; HATU/DIEA
Conditions: whole synthesis, UV 225 nm, scale of the general procedure 5 mg to 2 g resin for each peptide

## MeA-MeF-S-Cha-Y-S-Y-Y-R-R-Cha-C
  final purity (method not given): 91.67%
